Assay results reported in PubChem BioAssay AID2685 (National Center for Advancing Translational Sciences (NCATS), 2010).
The other results are listed elsewhere or left out. These are further read-outs of the screen, such as a control signal, another cell line or another target. No call is given for them. Most of these compounds were active or inconclusive in the main read-out, so they are no random draw. The note in brackets gives the kind of curve behind each potency; many fits are weak.

Test: qHTS Assay for Lipid Storage Modulators in Drosophila S3 Cells;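 on cell number change: cells counted by Cell Tracker Red CMTPX staining in the red channel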
Settings: BODIPY lipid droplet fluorescence, 18-24 h; for cell number change: measured here: cell count max response, cells fed with added oleic acid
Outline: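 Laser-scanning cytometry quantifies lipid droplet accumulation (500–530 nm total intensity; droplet/cell object ratio) in oleic acid-fed (400 uM added) Drosophila S3 cells treated with a concentration series. 20 uM Triacsin C defined 100% inhibition.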

[1] = measured here: lipid fluorescence (Fed channel) AC50, cells fed with added oleic acid
[2] = measured here: cell number channel AC50, cells fed with added oleic acid

| SMILES | cell number change | AC50 [1] | AC50 [2] |
| --- | --- | --- | --- |
| Cc1cccc(NC(=S)NCC2CCCO2)c1 (stereo not drawn) | 25.3% | 5.17 µM [falling, partial curve] | – |
| CCOc1ccc(NC(=O)CCC(=O)Nc2cc(OC)c(NC(=O)c3ccco3)cc2OC)cc1 | -11.1% | – | – |
| CCCCc1c(O)nc(SCC(=O)NCC2CCCO2)[nH]c1=O (stereo not drawn) | 8.31% | 6.51 µM [rising, partial curve, poor fit] | – |
| Cc1cc(OCc2nn[nH]n2)c2c(C)c(CC(=O)O)c(=O)oc2c1 | – | 1.16 µM [rising, single point] | – |
| CCOc1cc(C(N)=O)cc(Cl)c1OCc1ccccc1 | -46.9% | 0.92 µM [falling, full curve] | 0.82 µM [falling, full curve] |
| COc1ccc(OCC(=O)Nc2ccc3c(c2)nc(CCN2CCOCC2)n3C)cc1 | -19.9% | 0.164 µM [falling, full curve] | 0.184 µM [falling, full curve] |
| CCCCOC(=O)c1ccc(NC(=O)CN2C(=O)NC3(CCCCCC3)C2=O)cc1 | -0.968% | 23.1 µM [falling, partial curve] | – |
| CC(C)(C)Cc1nnc(NS(=O)(=O)Cc2ccccc2)s1 | 9.1% | – | – |
| CN(C)C1=NCCN1CCCC1CCCCC1 | 5.25% | 29.1 µM [rising, single point] | – |
| O=C(Cn1nc(-c2ccccc2)oc1=O)OCC(=O)c1ccc(F)c(F)c1 | -65.4% | 29.1 µM [falling, single point] | – |
| NS(=O)(=O)c1ccc(CNC(=O)/C=C/c2ccco2)cc1 | 5.68% | 0.058 µM [falling, full curve, poor fit] | – |
| COCCn1c(C)cc(C(=O)CSc2nc3ccccc3c(=O)n2C(C)COC)c1C (stereo not drawn) | 0.34% | 0.164 µM [rising, full curve, poor fit] | – |
| C=CCc1cccc(CNc2ccc(Br)cc2)c1O | -51.7% | – | 29.1 µM [falling, single point] |
| CN(CC(O)COc1ccc(OCC(O)CN(C)C2CCCCC2)cc1)C1CCCCC1 (stereo not drawn) | 32.7% | – | 4.11 µM [falling, single point] |
| COc1ccc(NC(=O)CCNS(=O)(=O)c2ccc3c(c2)c(=O)n(C)c(=O)n3C)cc1OC | -35.7% | 8.2 µM [rising, partial curve, poor fit] | 0.231 µM [falling, full curve, poor fit] |
| CN(Cc1ccccc1F)C(=O)CN1CCN(S(=O)(=O)c2ccc3c(c2)OCCCO3)CC1 | -18.1% | 16.4 µM [falling, single point] | – |
| Cc1ccc(NC(=O)CN(C)S(=O)(=O)c2cccs2)c(Br)c1 | 0.794% | – | – |
| CCOc1ccc(CCNC(=O)c2cccc(S(=O)(=O)N3CCCC3)c2)cc1OCC | -25% | – | 4.11 µM [falling, full curve, poor fit] |
| COc1ccc(Nc2c(C)cccc2C)cc1 | -52.3% | – | 9.2 µM [falling, partial curve] |
| O=C(CN1C(=O)C2CC=CCC2C1=O)NCC(=O)Nc1ccc(F)c(F)c1 (stereo not drawn) | -30.8% | 20.6 µM [falling, single point] | 29.1 µM [falling, single point] |

| SMILES | cell number change | AC50 [1] | AC50 [2] |
| --- | --- | --- | --- |
| COc1cc(C(=O)NC(C)CCn2cccn2)ccc1OC1CCN(C(C)=O)CC1 (stereo not drawn) | 7.01% | 6.51 µM [rising, single point] | – |
| CCN1CCSc2ccc(C(=O)NCc3ccc(OC(C)C)cc3)cc21 | -2.31% | 23.1 µM [falling, single point] | – |
| Fc1ccccc1-c1nnc2ccc3ccccc3n12 | 1.09% | 0.731 µM [falling, full curve] | – |
| CC(=O)c1cccc(Nc2nc(-c3cccnc3)cs2)c1 | -13.7% | – | – |
| Cc1ccc(Nc2nc3ccccc3s2)c(C)c1 | -28.6% | 9.2 µM [rising, partial curve] | 0.146 µM [falling, full curve, poor fit] |
| Nc1c(-c2cccs2)cnn1-c1nc(-c2ccc(F)cc2)cs1 | 13.2% | – | – |
| COc1cccc(NC(=S)N/N=C2\CC3CCC2(C)C3(C)C)c1 (stereo not drawn) | -57.8% | – | – |
| CCOC(=O)CSc1nnc(Cc2cc(=O)[nH]c(=O)[nH]2)n1-c1ccc(Cl)cc1 | 35.9% | – | 25.9 µM [rising, single point] |
| CCc1ccc(C2CC(c3ccccc3)n3ncnc3N2)cc1 (stereo not drawn) | -0.395% | 6.51 µM [rising, partial curve, poor fit] | – |
| COc1ccc(Cn2c(-c3ccco3)nc3oc4ccccc4c(=O)c3c2=O)cc1 | – | 3.66 µM [rising, partial curve] | 2.91 µM [rising, partial curve] |
| O=S1(=O)CCN2C=C(Cl)C=C(Cl)C2=N1 | -46% | – | 25.9 µM [falling, single point] |
| O=C(CCNC(=O)Cn1cnc2ccccc2c1=O)NCC1COc2ccccc2O1 (stereo not drawn) | -21.9% | 16.4 µM [falling, single point] | – |
| O=C(c1ccc(N2CCC3(CC2)OCCO3)c([N+](=O)[O-])c1)N1CCOCC1 | – | 5.8 µM [falling, single point] | – |
| COc1ccc(OCC(=O)N2N=C(C)CC2(O)C(F)(F)F)cc1 (stereo not drawn) | 51.1% | 0.00461 µM [rising, full curve, poor fit] | 20.6 µM [rising, partial curve, poor fit] |
| COc1ccc(S(=O)(=O)Cc2ccc(C(=O)NC3CCCCCC3)o2)cc1 | 0.59% | – | – |
| O=C(Nc1ccccc1O)c1cccc(NC(=O)c2ccco2)c1 | -36.1% | 29.1 µM [falling, single point] | 18.4 µM [falling, single point] |
| O=C(N/N=C/C=C/c1ccccc1)c1cnccn1 | 35.7% | 20.6 µM [rising, partial curve] | 13 µM [rising, single point] |
| O=C(Nn1c(SCc2cccc([N+](=O)[O-])c2)nc2ccccc2c1=O)c1ccccc1 | -0.329% | – | – |
| CC(=O)COc1cc2c(-c3cc4ccccc4o3)cc(=O)oc2cc1C | 50.8% | – | 18.4 µM [rising, single point] |
| CCc1ccc(N2CC(C(=O)Nc3ccc(S(=O)(=O)N4CCCCC4)cc3)CC2=O)cc1 (stereo not drawn) | -14.1% | 2.91 µM [falling, single point] | – |

Compounds from the list above that contain a nitro group on carbon, in the order listed:

| SMILES | cell number change | AC50 [1] | AC50 [2] |
| --- | --- | --- | --- |
| O=C(c1ccc(N2CCC3(CC2)OCCO3)c([N+](=O)[O-])c1)N1CCOCC1 | – | 5.8 µM [falling, single point] | – |
| O=C(Nn1c(SCc2cccc([N+](=O)[O-])c2)nc2ccccc2c1=O)c1ccccc1 | -0.329% | – | – |

Additional structures:

| SMILES | cell number change | AC50 [1] | AC50 [2] |
| --- | --- | --- | --- |
| Cc1ccc(C(=O)NNC(=O)CCC(=O)NCc2ccccc2)cc1Br | -19% | 29.1 µM [rising, single point] | 0.651 µM [falling, full curve, poor fit] |
| Cc1ccc(-n2ncc3c2CCCC3NC(=O)CCc2cnccn2)cc1C (stereo not drawn) | -56.9% | 29.1 µM [falling, single point] | 1.16 µM [falling, full curve] |
| CCOC(=O)c1cccc(NC(=O)CSc2nnc(CNc3ccc(C)cc3)n2CC)c1 | -46.2% | 0.731 µM [falling, full curve, poor fit] | 20.6 µM [falling, single point] |
| CCOC(=O)c1c(NC(=O)CN2CCN(C(=O)C3CCCO3)CC2)sc(C)c1C (stereo not drawn) | -10.2% | – | – |
| CCOc1ccc(C(=O)NC(=S)N2CCN(c3ccc(C(F)(F)F)cc3[N+](=O)[O-])CC2)cc1 | 12.7% | 29.1 µM [rising, single point] | – |
| Cc1c(Cl)cccc1NC(=O)CN1CCC(NC(=O)C2CCCCC2)CC1 | -26% | 20.6 µM [falling, partial curve, poor fit] | – |
| CCOC(=O)Cn1c(=O)c2c(nc3n2CCN3c2ccc(C)cc2)n(C)c1=O | -1.43% | 18.4 µM [rising, single point] | – |
| COc1ccc(N2CCN(C(=S)Nc3cc(C)cc(C)c3)CC2)cc1 | 22.1% | 16.4 µM [rising, partial curve] | – |
| COC(=O)c1ccc(NC(=O)C(C)N2C(=O)c3ccccc3C2=O)cc1 (stereo not drawn) | 33.6% | – | 32.6 µM [rising, single point] |
| CC(C)c1ccc(NC(=O)C2CCCCC2C(=O)O)cc1 (stereo not drawn) | 7.2% | 25.9 µM [falling, partial curve] | – |
| O=Cc1cn(-c2ccccc2)nc1-c1cc2cc(O)ccc2oc1=O | 24.4% | 6.51 µM [falling, single point] | – |
| Cc1nn(-c2ccccc2)c2sc(C(=O)N(CC(=O)NC(C)(C)C)Cc3ccco3)cc12 | -95.2% | 29.1 µM [falling, single point] | 18.4 µM [falling, single point] |
| O=C1CC(C(=O)N2CCc3ccccc32)CN1c1cccc(C(F)(F)F)c1 (stereo not drawn) | -18.4% | – | – |
| CCCOc1ccc(C2=NNC(c3cccs3)=Nc3ccc(OC)cc32)cc1 | -38.8% | 23.1 µM [falling, single point] | 29.1 µM [falling, single point] |
| CC(C)c1ccc(/C=C2\SC(=S)N(CCC(=O)NCCCn3ccnc3)C2=O)cc1 | -18% | 29.1 µM [falling, single point] | – |
| Cc1ccc(S(=O)(=O)N[C@H](C(=O)N2CCC(C(=O)N[C@H](C(=O)O)c3ccccc3)CC2)C(C)C)cc1 | -0.872% | – | – |
| Cc1cccc(NC(=O)c2ccc3c(c2)C(=O)N(Cc2cccnc2)C3=O)c1C | -11.1% | 14.6 µM [falling, partial curve, poor fit] | – |
| COc1cccc(N2C(=NC(=O)c3ccccc3)SC3CS(=O)(=O)CC32)c1 (stereo not drawn) | 1.3% | 6.51 µM [falling, single point] | – |
| CCCCc1nc(SCC(=O)Nc2nnc(C(C)C)s2)n[nH]1 | 43.1% | – | 20.6 µM [rising, partial curve, poor fit] |
